At least one peptide structure holds a part that was inferred or is arguable (an end, a ring closure or a residue). Where a SMILES comes first, the peptide text is derived from it. Bridges are numbered along the chain shown (N, C = ends). Where no end group is shown, it is not given here. The star is where a group is joined. Cam = NC(=O)C*
Assays:
α5 β1 integrin [1] = target: T1, α5 β1 integrin (Homo sapiens, UniProt P05556+P08648); assay: Inhibition of binding of ELRGDGW-displaying phage to integrin-coated wells; settings: 1 hr, room temperature; FIG. 2
α5 β1 integrin [2] = target: T2, α5 β1 integrin (UniProt G3HZ55+P08648); assay: Attachment of B2/α27 cells to immobilized GACRRETAWACGA peptide and its inhibition; assay type: cell-based, human; settings: FIG. 8; for Inhibition of B2/α27 attachment to immobilized GACRRETAWACGA by soluble peptide: 1 mM inhibitor
T2 construct: expressed in transfected cells; host or cells: CHO B2/α27
Source text: Cell lines expressing fibronectin-binding integrins were used to determine peptide activities against these integrins in the cell attachment assay described by Ruoslahti et al., Meth. Enzymol. 144:803-831 (1982), which is incorporated herein by reference. Human plasma fibronectin was iodinated as described by Morla and Ruoslahti, J. Cell Biol. 118:421-429 (1992), which is incorporated herein by reference. Vitronectin was obtained from Telios Pharmaceuticals (San Diego, Calif.). […] Peptide was coated on plastic by incubating at 37° C. for 2 hr in phosphate buffered saline containing 0.25% glutaraldehyde to crosslink the peptide. Free binding sites on the plastic were blocked using BSA. Approximately 1×10^5 cells per well were allowed to attach for 1 hr in the presence or absence of competing peptides. Bound cells were quantitated by staining with 0.1% amido black.
In addition to the inhibition of cell attachment to natural ligands, attachment and inhibition assays were performed using the […] [SEQ ID NO:3] peptide as substrate. The microtiter well were coated with […] [SEQ ID NO:3] using glutaraldehyde as described above. Briefly, peptide was coated on plastic by incubating at 37° C. for 2 hr in phosphate buffered saline containing 0.25% glutaraldehyde to crosslink the peptide and free binding sites on the plastic were blocked using BSA. The wells were then saturated with BSA followed by the addition of 50,000 B2/α27 or B2/Cl cells in the presence or absence of the indicated inhibitor. […] Bound cells were quantitated by staining with 0.1% amido black.

Sequences of proteins named here, by UniProt entry; tags and fusion partners are left off. Residues count along the entry.
UniProt P08648, 895-1049 partner limits assumed: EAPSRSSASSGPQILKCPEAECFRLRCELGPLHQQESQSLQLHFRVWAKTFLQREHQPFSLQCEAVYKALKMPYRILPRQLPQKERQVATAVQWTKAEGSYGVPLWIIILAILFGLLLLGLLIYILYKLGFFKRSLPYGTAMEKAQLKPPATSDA
UniProt P08648, 42-894 limits assumed: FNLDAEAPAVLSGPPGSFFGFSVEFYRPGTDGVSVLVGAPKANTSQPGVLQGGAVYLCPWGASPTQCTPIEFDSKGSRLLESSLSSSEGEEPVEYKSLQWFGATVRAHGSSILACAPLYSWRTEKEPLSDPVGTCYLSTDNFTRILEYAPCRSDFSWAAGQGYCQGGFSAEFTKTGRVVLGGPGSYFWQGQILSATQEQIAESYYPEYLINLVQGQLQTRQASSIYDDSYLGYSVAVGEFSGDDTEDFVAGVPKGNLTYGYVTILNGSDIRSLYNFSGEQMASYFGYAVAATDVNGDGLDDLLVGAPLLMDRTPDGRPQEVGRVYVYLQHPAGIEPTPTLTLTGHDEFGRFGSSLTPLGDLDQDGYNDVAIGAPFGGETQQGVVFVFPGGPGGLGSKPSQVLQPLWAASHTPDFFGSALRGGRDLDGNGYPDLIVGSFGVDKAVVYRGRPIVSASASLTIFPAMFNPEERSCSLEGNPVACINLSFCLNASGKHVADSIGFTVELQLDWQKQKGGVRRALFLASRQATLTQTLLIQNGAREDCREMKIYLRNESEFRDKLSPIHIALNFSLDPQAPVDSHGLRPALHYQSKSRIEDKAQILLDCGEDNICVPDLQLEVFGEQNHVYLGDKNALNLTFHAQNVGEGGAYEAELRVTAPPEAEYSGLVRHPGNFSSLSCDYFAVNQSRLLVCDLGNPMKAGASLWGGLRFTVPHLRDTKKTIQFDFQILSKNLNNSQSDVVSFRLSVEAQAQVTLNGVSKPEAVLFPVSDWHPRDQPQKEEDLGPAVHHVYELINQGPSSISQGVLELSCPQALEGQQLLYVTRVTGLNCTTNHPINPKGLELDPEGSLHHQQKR
UniProt G3HZ55, 21-798: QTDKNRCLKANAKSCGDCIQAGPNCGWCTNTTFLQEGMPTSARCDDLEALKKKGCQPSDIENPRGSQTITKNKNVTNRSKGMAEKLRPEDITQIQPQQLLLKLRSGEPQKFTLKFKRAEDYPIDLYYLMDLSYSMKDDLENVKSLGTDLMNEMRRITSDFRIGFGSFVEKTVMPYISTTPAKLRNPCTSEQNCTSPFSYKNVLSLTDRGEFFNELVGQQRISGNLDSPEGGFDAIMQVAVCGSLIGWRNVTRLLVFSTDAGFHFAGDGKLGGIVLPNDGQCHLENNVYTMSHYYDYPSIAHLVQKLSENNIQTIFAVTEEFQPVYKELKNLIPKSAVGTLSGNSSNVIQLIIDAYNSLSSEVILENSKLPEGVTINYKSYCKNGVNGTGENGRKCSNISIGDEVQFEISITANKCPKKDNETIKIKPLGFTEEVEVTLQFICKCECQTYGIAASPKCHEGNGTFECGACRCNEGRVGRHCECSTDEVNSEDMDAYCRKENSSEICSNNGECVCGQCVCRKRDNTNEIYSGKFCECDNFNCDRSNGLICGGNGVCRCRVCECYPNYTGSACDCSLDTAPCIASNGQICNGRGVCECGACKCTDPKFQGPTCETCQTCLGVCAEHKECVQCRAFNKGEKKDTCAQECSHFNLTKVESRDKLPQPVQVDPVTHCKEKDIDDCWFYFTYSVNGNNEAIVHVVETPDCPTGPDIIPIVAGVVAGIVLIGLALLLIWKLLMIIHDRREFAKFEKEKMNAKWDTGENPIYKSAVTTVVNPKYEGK
UniProt P09055, 21-798: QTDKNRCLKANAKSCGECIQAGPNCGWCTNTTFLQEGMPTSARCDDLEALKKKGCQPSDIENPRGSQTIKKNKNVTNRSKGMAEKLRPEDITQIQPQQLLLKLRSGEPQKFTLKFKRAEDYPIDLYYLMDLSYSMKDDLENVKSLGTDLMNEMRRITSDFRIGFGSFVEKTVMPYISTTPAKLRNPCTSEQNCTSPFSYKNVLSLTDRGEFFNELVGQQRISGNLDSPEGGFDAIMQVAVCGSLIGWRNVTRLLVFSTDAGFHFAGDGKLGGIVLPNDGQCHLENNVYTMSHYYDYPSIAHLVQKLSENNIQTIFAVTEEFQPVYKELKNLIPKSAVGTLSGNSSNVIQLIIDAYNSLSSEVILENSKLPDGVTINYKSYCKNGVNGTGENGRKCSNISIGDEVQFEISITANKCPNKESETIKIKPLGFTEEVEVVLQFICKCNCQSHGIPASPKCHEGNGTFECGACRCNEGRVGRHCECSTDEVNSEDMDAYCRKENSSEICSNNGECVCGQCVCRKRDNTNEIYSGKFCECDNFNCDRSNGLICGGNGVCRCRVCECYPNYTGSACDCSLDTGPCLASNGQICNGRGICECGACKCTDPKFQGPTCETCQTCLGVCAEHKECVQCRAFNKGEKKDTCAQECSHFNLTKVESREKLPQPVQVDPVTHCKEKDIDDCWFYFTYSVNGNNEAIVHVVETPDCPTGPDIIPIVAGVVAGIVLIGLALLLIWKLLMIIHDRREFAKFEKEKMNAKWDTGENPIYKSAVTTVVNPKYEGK
UniProt P11688, 899-1053 partner limits assumed: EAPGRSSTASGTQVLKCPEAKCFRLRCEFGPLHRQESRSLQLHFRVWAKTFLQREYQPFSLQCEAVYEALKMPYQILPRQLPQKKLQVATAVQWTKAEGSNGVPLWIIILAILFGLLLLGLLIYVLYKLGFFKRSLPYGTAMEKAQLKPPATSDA
UniProt P11688, 45-898 limits assumed: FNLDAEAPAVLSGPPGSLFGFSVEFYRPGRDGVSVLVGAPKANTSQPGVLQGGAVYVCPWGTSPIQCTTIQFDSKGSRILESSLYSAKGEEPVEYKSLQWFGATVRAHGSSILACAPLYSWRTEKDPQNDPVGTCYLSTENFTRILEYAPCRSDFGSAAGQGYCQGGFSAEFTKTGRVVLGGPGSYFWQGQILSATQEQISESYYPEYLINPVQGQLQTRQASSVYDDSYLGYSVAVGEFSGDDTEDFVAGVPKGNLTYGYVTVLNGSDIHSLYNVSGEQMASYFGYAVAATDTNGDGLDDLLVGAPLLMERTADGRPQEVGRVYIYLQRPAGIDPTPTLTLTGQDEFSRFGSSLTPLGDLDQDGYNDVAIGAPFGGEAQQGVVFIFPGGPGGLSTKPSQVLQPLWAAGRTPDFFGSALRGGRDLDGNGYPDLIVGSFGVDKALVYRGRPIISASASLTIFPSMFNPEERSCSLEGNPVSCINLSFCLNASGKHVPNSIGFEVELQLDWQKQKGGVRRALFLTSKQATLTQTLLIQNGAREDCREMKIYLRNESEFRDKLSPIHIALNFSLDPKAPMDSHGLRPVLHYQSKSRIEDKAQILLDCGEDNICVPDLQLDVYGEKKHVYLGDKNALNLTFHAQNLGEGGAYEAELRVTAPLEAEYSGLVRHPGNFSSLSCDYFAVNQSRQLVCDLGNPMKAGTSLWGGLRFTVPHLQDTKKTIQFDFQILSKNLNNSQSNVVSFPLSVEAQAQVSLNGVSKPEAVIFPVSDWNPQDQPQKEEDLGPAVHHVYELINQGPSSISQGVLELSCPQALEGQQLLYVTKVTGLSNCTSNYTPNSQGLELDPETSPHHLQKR
UniProt P06756, 891-1048 limits assumed: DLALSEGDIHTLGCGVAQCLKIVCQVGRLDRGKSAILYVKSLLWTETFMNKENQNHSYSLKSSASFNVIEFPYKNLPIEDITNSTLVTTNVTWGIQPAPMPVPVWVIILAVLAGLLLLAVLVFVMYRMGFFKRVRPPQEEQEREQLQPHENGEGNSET
UniProt P06756, 31-889 limits assumed: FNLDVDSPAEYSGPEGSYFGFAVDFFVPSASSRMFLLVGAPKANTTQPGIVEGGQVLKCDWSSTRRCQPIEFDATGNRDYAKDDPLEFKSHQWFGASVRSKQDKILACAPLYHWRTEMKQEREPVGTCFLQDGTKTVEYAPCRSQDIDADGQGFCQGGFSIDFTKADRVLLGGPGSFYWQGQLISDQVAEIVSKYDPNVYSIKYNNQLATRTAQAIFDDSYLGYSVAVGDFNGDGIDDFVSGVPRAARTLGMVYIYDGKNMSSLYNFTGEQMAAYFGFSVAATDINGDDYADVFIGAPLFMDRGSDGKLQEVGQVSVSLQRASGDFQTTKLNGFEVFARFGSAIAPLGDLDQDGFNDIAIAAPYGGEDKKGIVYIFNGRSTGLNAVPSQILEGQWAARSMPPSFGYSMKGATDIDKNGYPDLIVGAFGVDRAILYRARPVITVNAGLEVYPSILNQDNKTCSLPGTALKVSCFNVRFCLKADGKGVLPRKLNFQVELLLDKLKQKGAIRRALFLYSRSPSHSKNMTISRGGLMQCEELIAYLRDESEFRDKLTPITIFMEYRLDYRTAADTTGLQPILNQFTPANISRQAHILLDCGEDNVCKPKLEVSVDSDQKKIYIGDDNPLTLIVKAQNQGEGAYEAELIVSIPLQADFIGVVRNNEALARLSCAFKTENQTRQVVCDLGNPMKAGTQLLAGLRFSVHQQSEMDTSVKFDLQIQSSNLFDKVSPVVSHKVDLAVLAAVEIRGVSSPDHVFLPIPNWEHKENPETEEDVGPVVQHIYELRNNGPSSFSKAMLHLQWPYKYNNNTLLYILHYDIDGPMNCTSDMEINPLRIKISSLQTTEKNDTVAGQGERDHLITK
UniProt P18084, 24-799: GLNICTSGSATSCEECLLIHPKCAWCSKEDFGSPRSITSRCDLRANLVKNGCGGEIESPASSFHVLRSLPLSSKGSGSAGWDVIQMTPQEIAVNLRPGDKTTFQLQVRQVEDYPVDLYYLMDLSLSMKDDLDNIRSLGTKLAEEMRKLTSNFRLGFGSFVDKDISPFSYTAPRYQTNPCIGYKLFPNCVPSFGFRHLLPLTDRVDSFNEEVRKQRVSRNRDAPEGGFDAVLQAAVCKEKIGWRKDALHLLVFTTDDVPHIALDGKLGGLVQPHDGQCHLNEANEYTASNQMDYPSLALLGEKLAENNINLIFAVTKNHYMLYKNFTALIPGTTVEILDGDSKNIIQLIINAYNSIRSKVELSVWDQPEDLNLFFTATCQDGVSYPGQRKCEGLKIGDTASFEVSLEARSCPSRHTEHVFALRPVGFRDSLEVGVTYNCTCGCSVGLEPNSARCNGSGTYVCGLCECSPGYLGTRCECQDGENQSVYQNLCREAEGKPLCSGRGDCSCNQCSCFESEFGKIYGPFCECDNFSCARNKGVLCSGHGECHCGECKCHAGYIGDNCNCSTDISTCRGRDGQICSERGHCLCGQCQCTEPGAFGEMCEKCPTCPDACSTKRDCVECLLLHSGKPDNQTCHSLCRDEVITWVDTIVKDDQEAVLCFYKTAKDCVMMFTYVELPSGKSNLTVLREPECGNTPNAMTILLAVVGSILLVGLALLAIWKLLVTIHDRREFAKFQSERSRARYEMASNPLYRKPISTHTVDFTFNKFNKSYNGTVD
UniProt P05106, 27-788: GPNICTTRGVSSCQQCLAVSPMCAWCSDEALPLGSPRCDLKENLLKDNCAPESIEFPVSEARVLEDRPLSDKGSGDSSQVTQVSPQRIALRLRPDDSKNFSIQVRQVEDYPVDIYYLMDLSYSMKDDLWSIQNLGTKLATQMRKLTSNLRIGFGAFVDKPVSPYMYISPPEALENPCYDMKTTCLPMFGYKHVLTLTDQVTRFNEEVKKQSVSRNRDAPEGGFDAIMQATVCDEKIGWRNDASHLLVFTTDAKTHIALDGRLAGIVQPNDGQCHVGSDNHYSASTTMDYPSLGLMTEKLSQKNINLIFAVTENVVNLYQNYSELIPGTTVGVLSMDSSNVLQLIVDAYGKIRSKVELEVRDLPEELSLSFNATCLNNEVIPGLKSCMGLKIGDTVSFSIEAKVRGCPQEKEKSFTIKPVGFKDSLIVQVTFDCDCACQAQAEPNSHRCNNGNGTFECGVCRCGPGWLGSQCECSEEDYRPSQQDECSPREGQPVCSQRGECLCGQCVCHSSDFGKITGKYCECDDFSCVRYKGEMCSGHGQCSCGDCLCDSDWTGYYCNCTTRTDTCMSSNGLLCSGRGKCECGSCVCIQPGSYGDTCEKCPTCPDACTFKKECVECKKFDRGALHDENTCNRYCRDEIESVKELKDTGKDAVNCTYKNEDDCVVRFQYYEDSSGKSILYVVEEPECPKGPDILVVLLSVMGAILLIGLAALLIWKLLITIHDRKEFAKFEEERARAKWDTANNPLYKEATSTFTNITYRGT

α5 β1 integrin [3] = assay: Inhibition of α5 β1-mediated cell attachment to fibronectin; assay type: cell-based, human
α5 β1 integrin [4] = target: T3, α5 β1 integrin (Mus musculus, UniProt P09055+P11688); assay: Inhibition of NIH 3T3 cell attachment to fibronectin; assay type: cell-based; settings: not shown
T3 construct: CHO cells C11 and NIH 3T3 cells express the endogenous Chinese hamster and mouse α5 β1 integrins, respectively; endogenous in cells; host or cells: NIH 3T3

α5 β1 integrin [5] = target: T1, α5 β1 integrin; assay: Inhibition of binding of RRETAWA-displaying phage to integrin-coated wells
αv β5 integrin = target: T4, αv β5 integrin (Homo sapiens, UniProt P06756+P18084); assay: Inhibition of αv β5-mediated cell attachment to vitronectin; assay type: cell-based; settings: all concentrations tested; FIG. 7
T4 construct: endogenous in cells; host or cells: probably HT-29

αv β3 integrin = αv β3 integrin (Homo sapiens, UniProt P05106+P06756); assay: Inhibition of binding of CRGDCL-displaying phage to integrin-coated wells; settings: FIG. 3
αv β1 integrin [6] = assay: Inhibition of αv β1-mediated cell attachment to fibronectin; assay type: cell-based; settings: FIG. 6
α5 β1 integrin [7] = assay: Inhibition of CHO C11 cell attachment to fibronectin; assay type: cell-based, Chinese hamster; settings: not shown
[8] = test system: cell lines that do not express these integrins or express a non-human α5 β1 integrin; assay: Attachment to immobilized CRRETAWAC of cell lines lacking these integrins or with non-human α5 β1; assay type: cell-based; settings: not shown
[9] = test system: α5 β1 and α4 β1 integrins; assay: Inhibition of A375-M cell attachment to fibronectin; assay type: cell-based; settings: A375-M human melanoma cells
αv β1 integrin [10] = assay: Attachment of B2/v7 cells to immobilized GACRRETAWACGA peptide; assay type: cell-based; settings: αv β1-expressing B2/v7 cells; not shown

With `CC(C)C[C@H](NC(=O)[C@@H]1CSSC[C@H](NC(=O)[C@H](C)NC(=O)CN)C(=O)N[C@@H](CCCNC(=N)N)C(=O)NCC(=O)N[C@@H](CC(=O)O)C(=O)N1)C(=O)NCC(=O)N[C@@H](C)C(=O)O` [CRGDC, GA*CRGDC*LGA, reference compound] (H-GACRGDCLGA-OH; disulfide 3-7) as the compound, how does the “Inhibition of ELRGDGW-displaying phage binding to α5 β1” value (α5 β1 integrin [1]) read?
Its value is “approximately the same degree of inhibition”.

And the “Inhibition of B2/α27 attachment to immobilized GACRRETAWACGA by soluble peptide” value (α5 β1 integrin [2])?
The value was “inhibited”.

Which results are given for `C[C@H](NC(=O)CNC(=O)[C@H](CSCC(N)=O)NC(=O)[C@H](C)NC(=O)[C@H](Cc1c[nH]c2ccccc12)NC(=O)[C@H](C)NC(=O)[C@@H](NC(=O)[C@H](CCC(=O)O)NC(=O)[C@H](CCCNC(=N)N)NC(=O)[C@H](CCCNC(=N)N)NC(=O)[C@H](CSCC(N)=O)NC(=O)[C@H](C)NC(=O)CN)[C@@H](C)O)C(=O)O` [CRRETAWAC (reduced and alkylated)] (H-GAC(Cam)RRETAWAC(Cam)GA-OH)?
Reduction of activity after reduction and alkylation of the disulfide bond, versus cyclic peptide (α5 β1 integrin [3]; cell attachment inhibition, not shown): about 50 ×; Binding activity after reduction of the disulfide bond and alkylation of the cysteine residues (α5 β1 integrin [3]; general statement, assay not named): significantly decreased

For `C[C@H](NC(=O)CNC(=O)[C@@H]1CSSC[C@H](NC(=O)[C@H](C)NC(=O)CN)C(=O)N[C@@H](CCCNC(=N)N)C(=O)N[C@@H](CCCNC(=N)N)C(=O)N[C@@H](CCC(=O)O)C(=O)N[C@@H]([C@@H](C)O)C(=O)N[C@@H](C)C(=O)N[C@@H](Cc2c[nH]c3ccccc23)C(=O)N[C@@H](C)C(=O)N1)C(=O)O` [CRRETAWAC, GA*CRRETAWAC*GA] (H-GACRRETAWACGA-OH; disulfide 3-11), which “Blocking of attachment of mouse NIH 3T3 cells to fibronectin” value (α5 β1 integrin [4]) is on record?
Its value is “could not block”.

What about the “Efficiency of inhibiting RRETAWA-displaying phage binding, relative to CRGDCL containing peptide” value (α5 β1 integrin [5]; FIG. 4) of the same compound?
Its value is “about 10 times”.

And the “Activity against αv β5 cell attachment to vitronectin” value (αv β5 integrin)?
The value was “essentially devoid of activity”.

And the “Inhibition of CRGDCL-displaying phage binding to αv β3” value (αv β3 integrin)?
The value was “ineffective”.

What about the “Fold less active than CELRGDGWC against αv β1” value (αv β1 integrin [6]) of the same compound?
The value was “about 40 ×”.

And the “Fold less active than the cyclic RGD peptide against αv β1” value (αv β1 integrin [6])?
Its value is “greater than 100 ×”.

And the “Inhibition of ELRGDGW-displaying phage binding to α5 β1” value (α5 β1 integrin [1])?
The value was “approximately the same degree of inhibition”.

What about the “Blocking of attachment of CHO C11 cells to fibronectin” value (α5 β1 integrin [7]) of the same compound?
The value was “could not block”.

What about the IC50 (α5 β1 integrin [3]; B2/α27 cells, FIG. 5) of the same compound?
The IC50 was 30 µM.

What about the “Inhibition of α5 β1-mediated cell attachment compared with cyclic CRGDCL peptide” value (α5 β1 integrin [3]; B2/α27 cells, FIG. 5) of the same compound?
Its value is “more efficient”.

What about the “Cell attachment to 110 kilodalton fragment of fibronectin containing the cell attachment domain” value (α5 β1 integrin [3]; not shown) of the same compound?
The value was “inhibited cell attachment”.

And the “Attachment of cells to immobilized CRRETAWAC” value [8]?
Its value is “did not attach”.

And the “Inhibition of attachment of A375-M cells to fibronectin” value [9]?
The value was “only partially inhibited”.

What about the “Inhibition of B2/α27 attachment to immobilized GACRRETAWACGA by soluble peptide” value (α5 β1 integrin [2]) of the same compound?
The value was “inhibited”.

And the “Promotion of cell adhesion by immobilized peptide” value (α5 β1 integrin [2]; B2/α27 versus B2/Cl cells)?
Its value is “specifically promoted α5 β1 -mediated adhesion”.

What about the “Peptide coating concentration required to produce significant attachment of B2/v7 cells” value (αv β1 integrin [10]) of the same compound?
The value was 1 mg/mL.

Which results are given for GRGESP [GRGESP, reference compound]?
Effect on RRETAWA-displaying phage binding to α5 β1 (α5 β1 integrin [5]; not shown): no effect; Effect on α5 β1-mediated cell attachment to fibronectin (α5 β1 integrin [3]; B2/α27 cells, FIG. 5): no effect

Source: patent US5627263A, “Integrin-binding peptides” (La Jolla Cancer Research Foundation, priority 1995, dated 1997)
